What all share (experiment): log2 fold change, soluble protein after heating vs DMSO (PISA); higher = thermal stabilisation; K562 cells, 10 uM, 30 min; active = over 0.2 and 3.5 SD of the protein, either way, in both replicates (recomputed)
Compound in one assay: CN1CCN(CCOc2cc(OC3CCOCC3)c3c(Nc4c(Cl)ccc5c4OCO5)ncnc3c2)CC1 [saracatinib]
The method, boiled down: (§1)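 Values are thermal stability changes relative to control samples and are taken from duplicates. They are stated as log2 fold changes. Before quantification by TMTpro 16plex LC-MS/MS with equalised channel sums, K562 cells at 2×10^6 cells/mL were treated with 10 μM compound for 30 min, heated in aliquots for 3 min across 48°C-58°C, pooled, extracted in PBS with 0.5% NP-40 at 4°C, and centrifuged at 21,000xg for 90 min to give the soluble supernatant.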

By UniProt entry, the sequences of proteins in these tests, tags left out. Where a name states a change or a piece, a line headed by the entry shows the natural chain unless it says otherwise.
UniProt Q9UPY8, whole entry, looked up: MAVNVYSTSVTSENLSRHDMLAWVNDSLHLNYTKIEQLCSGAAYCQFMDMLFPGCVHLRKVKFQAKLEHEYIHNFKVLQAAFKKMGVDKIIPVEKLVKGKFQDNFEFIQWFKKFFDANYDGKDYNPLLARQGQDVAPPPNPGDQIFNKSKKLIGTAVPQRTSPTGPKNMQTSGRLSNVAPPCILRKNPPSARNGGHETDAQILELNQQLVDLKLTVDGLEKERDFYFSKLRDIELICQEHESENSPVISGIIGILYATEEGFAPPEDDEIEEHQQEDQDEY
UniProt P46734: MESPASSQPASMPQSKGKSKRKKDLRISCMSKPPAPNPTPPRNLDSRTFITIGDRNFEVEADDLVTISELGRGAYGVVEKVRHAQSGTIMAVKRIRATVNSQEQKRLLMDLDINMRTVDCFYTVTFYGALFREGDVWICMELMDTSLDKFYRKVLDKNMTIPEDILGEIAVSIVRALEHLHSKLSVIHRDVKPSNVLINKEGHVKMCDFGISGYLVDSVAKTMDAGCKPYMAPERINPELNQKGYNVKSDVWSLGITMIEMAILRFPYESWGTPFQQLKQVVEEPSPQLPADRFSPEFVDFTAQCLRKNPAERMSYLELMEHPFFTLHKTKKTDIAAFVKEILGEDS
UniProt Q5TCQ9: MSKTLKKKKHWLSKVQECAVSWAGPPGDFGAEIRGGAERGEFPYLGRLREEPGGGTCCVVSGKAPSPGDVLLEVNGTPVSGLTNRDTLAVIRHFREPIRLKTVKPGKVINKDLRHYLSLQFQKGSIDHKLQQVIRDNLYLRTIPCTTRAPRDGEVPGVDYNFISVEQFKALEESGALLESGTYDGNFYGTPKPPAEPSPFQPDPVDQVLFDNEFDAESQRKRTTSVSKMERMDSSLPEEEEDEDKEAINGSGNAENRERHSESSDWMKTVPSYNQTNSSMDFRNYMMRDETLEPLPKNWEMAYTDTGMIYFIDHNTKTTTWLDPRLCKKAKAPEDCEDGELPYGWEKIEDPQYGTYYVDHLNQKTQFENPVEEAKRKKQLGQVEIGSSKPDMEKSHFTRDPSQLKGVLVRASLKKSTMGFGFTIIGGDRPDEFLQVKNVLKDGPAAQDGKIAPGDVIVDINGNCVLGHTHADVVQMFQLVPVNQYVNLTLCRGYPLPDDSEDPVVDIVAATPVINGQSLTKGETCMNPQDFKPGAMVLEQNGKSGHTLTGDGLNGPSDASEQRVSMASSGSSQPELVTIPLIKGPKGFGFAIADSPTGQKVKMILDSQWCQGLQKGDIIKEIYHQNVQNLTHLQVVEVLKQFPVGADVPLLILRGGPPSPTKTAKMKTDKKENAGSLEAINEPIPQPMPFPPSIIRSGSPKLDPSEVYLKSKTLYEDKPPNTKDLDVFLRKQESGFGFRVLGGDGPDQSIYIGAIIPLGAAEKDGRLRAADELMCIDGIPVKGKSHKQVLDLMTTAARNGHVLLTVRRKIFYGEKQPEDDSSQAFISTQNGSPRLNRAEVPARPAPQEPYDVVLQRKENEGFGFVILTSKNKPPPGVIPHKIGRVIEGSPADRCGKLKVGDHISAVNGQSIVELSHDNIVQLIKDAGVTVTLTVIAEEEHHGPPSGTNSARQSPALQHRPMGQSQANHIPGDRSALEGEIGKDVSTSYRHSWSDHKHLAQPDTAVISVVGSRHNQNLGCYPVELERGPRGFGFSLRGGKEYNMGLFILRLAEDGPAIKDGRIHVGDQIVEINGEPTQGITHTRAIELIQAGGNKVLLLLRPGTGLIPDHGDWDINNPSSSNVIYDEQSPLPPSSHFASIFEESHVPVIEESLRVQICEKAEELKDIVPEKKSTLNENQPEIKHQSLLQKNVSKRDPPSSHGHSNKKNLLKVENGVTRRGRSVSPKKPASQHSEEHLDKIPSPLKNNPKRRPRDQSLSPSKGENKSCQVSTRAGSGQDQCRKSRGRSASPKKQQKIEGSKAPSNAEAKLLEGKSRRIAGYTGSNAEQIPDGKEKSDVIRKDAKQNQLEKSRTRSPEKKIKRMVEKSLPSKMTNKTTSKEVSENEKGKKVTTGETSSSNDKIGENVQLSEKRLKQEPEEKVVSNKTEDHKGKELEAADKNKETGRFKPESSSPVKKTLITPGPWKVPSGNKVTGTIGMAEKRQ
UniProt Q32MZ4: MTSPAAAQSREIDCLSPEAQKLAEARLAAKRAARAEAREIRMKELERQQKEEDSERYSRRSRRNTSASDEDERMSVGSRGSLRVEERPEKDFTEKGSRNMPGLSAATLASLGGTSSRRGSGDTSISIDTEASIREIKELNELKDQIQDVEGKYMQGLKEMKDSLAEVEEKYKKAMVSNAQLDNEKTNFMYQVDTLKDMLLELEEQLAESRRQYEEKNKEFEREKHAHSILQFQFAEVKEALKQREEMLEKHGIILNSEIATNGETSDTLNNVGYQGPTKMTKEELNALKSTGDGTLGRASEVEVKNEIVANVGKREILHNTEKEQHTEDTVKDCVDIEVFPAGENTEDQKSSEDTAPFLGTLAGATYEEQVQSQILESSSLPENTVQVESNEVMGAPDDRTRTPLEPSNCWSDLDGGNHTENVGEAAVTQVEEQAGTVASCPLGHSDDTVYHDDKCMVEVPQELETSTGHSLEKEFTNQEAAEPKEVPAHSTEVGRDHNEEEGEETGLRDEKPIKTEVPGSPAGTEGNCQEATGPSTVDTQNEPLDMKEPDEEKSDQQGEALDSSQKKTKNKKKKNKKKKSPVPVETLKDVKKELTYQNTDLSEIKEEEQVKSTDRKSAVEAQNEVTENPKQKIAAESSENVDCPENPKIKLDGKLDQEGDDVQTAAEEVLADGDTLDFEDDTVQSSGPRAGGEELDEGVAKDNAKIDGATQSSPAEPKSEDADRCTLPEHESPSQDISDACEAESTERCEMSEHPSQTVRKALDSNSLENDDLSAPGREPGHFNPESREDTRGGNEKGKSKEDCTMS
UniProt P27448: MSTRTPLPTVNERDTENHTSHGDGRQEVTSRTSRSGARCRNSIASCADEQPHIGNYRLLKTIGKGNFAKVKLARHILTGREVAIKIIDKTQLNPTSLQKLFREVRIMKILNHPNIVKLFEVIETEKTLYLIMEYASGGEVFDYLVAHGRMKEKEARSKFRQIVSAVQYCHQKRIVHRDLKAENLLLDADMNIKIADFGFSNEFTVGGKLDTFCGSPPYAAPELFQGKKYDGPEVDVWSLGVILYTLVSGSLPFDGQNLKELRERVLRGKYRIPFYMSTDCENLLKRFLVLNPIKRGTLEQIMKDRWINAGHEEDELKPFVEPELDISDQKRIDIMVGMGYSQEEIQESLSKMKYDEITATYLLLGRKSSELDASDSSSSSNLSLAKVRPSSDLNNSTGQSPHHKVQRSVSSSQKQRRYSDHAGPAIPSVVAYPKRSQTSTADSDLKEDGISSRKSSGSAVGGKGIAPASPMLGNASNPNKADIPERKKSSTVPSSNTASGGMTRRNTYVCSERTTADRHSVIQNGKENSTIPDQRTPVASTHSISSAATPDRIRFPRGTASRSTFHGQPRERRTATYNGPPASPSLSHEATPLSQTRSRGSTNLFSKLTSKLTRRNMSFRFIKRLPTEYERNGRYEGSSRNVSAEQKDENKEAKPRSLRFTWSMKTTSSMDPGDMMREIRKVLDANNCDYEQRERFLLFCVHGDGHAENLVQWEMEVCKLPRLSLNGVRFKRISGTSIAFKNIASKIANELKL
UniProt O14733: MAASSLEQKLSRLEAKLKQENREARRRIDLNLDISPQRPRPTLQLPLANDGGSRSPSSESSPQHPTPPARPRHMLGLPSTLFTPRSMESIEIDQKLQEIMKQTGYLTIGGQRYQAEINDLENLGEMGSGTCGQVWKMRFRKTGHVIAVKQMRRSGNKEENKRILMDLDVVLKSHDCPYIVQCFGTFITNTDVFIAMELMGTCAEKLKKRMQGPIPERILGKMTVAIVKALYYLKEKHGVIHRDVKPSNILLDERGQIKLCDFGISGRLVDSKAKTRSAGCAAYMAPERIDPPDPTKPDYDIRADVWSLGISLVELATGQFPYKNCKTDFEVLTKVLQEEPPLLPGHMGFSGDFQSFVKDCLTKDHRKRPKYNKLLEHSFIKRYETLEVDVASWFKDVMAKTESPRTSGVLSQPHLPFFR
UniProt P29966: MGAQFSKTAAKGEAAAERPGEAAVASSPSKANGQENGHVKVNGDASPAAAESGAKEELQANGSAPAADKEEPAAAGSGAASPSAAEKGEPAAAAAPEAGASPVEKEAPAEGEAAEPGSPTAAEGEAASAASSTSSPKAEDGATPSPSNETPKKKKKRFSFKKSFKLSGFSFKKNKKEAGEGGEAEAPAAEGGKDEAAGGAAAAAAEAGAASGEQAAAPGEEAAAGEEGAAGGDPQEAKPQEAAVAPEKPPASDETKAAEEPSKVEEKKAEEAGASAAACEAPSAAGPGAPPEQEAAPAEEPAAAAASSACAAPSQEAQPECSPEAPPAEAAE
UniProt Q9Y383: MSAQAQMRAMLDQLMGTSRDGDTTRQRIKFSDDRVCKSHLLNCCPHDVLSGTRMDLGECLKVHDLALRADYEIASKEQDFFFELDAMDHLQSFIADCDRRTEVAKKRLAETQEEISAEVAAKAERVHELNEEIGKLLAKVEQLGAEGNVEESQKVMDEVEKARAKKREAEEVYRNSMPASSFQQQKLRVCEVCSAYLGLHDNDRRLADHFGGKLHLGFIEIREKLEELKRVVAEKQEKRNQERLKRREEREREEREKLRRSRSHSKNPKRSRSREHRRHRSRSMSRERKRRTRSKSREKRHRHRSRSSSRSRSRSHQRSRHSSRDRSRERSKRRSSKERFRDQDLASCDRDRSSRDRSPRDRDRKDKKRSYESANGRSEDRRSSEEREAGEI
UniProt P45983: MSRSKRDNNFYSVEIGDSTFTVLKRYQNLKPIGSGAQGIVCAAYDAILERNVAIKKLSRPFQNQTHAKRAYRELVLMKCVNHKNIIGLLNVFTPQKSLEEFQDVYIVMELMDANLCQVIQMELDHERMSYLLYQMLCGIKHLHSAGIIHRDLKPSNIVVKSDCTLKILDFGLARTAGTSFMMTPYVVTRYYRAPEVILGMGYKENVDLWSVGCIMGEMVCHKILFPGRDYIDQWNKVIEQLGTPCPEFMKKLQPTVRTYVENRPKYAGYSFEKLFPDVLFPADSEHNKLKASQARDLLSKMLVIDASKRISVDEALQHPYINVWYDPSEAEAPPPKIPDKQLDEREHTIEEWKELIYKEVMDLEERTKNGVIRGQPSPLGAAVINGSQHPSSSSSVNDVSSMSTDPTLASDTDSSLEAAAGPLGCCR

Compound in a further assay: CN1CCN(c2nc(C3=C(c4c[nH]c5ccccc45)C(=O)NC3=O)c3ccccc3n2)CC1 [sotrastaurin]
The method, boiled down:
as §1

Compound in a further assay: CN1CCc2c(c3ccccc3n2Cc2ccc(C(=O)NO)cc2)C1 [Tubastatin A]
An outline of the steps: as §1

Compound in assay [1]: CNC(=O)C1=CC=CC=C1NC2=NC(=NC=C2Cl)NC3=C(C=C(C=C3)N4CCOCC4)OC
An outline of the steps:
as §1

Compound in another assay: CNC(=O)c1ccc(Nc2ncc(C(F)(F)F)c(NCc3nccnc3N(C)S(C)(=O)=O)n2)cc1 [defactinib]
An outline of the steps: as §1

Compound in another assay: CNCc1ccc(-c2[nH]c3cc(F)cc4c3c2CCNC4=O)cc1 [rucaparib]
An outline of the steps:
as §1

Compound in assay [2]: CNc1nc(-c2ccc3c(N)n[nH]c3c2)cc(N2C[C@@H](C(=O)NC3CCCCC3)CC[C@H]2C)n1
The method, boiled down: as §1

Compound in the next assay: COC(=O)N[C@@H](C)CNc1nccc(-c2cn(C(C)C)nc2-c2cc(Cl)cc(NS(C)(=O)=O)c2F)n1 [encorafenib]
The method, boiled down: as §1

Compound in assay [3]: COC(=O)[C@H](CCSC)NC(=O)C1=C(C=C(C=C1)NC[C@H](CS)N)C2=CC=CC=C2
The method, boiled down: as §1

The other results are listed elsewhere or left out.

Take MAPRE3 (UniProt Q9UPY8): the log2 fold change with saracatinib was inactive: -0.029; with sotrastaurin it was inactive: -0.016; in the assay with Tubastatin A, inactive: -0.067; in assay [1], inactive: 0.025; in the assay with defactinib, inactive: -0.031; with rucaparib, inactive: 0.02. Further, the figures for the log2 fold change (in [2]; with encorafenib; in assay [3]) were inactive: -0.016, inactive: 0.017 and inactive: 0.027, respectively.

Regarding MAP2K3 isoform 3 (UniProt P46734), the log2 fold change with saracatinib is inactive: 0.024; in the assay with sotrastaurin it was inactive: 0.017; in the assay with Tubastatin A, inactive: -0.045; in assay [1], inactive: -0.025; in the assay with defactinib it was inactive: -0.063; with rucaparib, inactive: 0.058. In addition, the results for the log2 fold change (in assay [2]; in the assay with encorafenib; in assay [3]) were inactive: -0.061, inactive: -0.02 and inactive: 0.003, respectively.

Turning to MAGI3 isoform 1 (UniProt Q5TCQ9), the log2 fold change with saracatinib is inactive: -0.393; with sotrastaurin, inactive: -0.111; with Tubastatin A, inactive: 0.26; with defactinib it was inactive: 0.037; with rucaparib it was inactive: 0.166; in assay [2] it was inactive: 0.215. Further, the log2 fold change with encorafenib was inactive: 0.031; in assay [3] it was inactive: -0.007.

As to LRRFIP1 (UniProt Q32MZ4), the log2 fold change with saracatinib was inactive: 0.017; in the assay with sotrastaurin it was inactive: 0.047; in the assay with Tubastatin A it was inactive: -0.005; in assay [1] it was inactive: -0.009; with defactinib, inactive: -0.01; in the assay with rucaparib, inactive: -0.01. For the same target, the values for the log2 fold change (in [2]; in the assay with encorafenib; in assay [3]) were inactive: -0.034, inactive: -0.019 and inactive: 0.022, respectively.

For MARK3 (UniProt P27448), the log2 fold change with saracatinib is inactive: 0.024; with sotrastaurin it was active: -0.434; with Tubastatin A, inactive: 0.058; in assay [1] it was inactive: -0.367; with defactinib, inactive: -0.176; in the assay with rucaparib it was inactive: -0.016. For the same target, the figures for the log2 fold change (in [2]; in the assay with encorafenib; in assay [3]) were inactive: -0.069, inactive: 0.096 and inactive: 0.033, respectively.

Take MAP2K7 isoform 4 (UniProt O14733): the log2 fold change was inactive: 0.063 in the assay with saracatinib; inactive: 0.026 with sotrastaurin; inactive: -0.002 with Tubastatin A; inactive: -0.04 in assay [1]; inactive: -0.012 with defactinib; inactive: 0.036 with rucaparib. Also, the log2 fold change is inactive: -0.001 in assay [2], inactive: 0.013 in the assay with encorafenib and inactive: -0.01 in assay [3].

In the case of MARCKS (UniProt P29966), the log2 fold change with saracatinib is inactive: 0.019; with sotrastaurin it was inactive: 0.077; with Tubastatin A it was inactive: 0.039; in [1], inactive: 0.005; in the assay with defactinib, inactive: 0.009; in the assay with rucaparib it was inactive: -0.02. Further, the log2 fold change in [2] was inactive: -0.02; with encorafenib, inactive: -0.014; in assay [3] it was inactive: 0.002.

For the target LUC7L2 (UniProt Q9Y383), the log2 fold change was inactive: 0.022 in the assay with saracatinib; inactive: -0.01 with sotrastaurin; inactive: 0.007 with Tubastatin A; active: -0.304 in [1]; active: -0.267 with defactinib; inactive: -0.077 in the assay with rucaparib. The log2 fold change in assay [2] is inactive: -0.047; with encorafenib it was inactive: 0.065; in assay [3], inactive: 0.03.

Turning to MAPK8 isoform 3 (UniProt P45983), the log2 fold change in the assay with saracatinib was inactive: -0.006; with sotrastaurin it was inactive: 0.052; in the assay with Tubastatin A, inactive: 0.009; in [1], active: 0.942; with defactinib it was inactive: -0.009; with rucaparib, inactive: 0.031. Further, the log2 fold change in assay [2] was inactive: -0.07; with encorafenib, inactive: 0.029; in [3] it was inactive: -0.029.

The values above are taken from the supplement of paper PMC10849652.
